In PMC7615710:
These are yes or no findings as the source states them, for the method shown. Binding seen in cells or lysates may run through a third protein. Some entries that bind do so weakly or less than the wild type. For part of these data: Tags and fused reporters may be left off the sequences shown.

Chains of the proteins cited; added tags and fusions are not shown. Residues count along the entry.
UniProt Q99IB8, residues 1977-2442: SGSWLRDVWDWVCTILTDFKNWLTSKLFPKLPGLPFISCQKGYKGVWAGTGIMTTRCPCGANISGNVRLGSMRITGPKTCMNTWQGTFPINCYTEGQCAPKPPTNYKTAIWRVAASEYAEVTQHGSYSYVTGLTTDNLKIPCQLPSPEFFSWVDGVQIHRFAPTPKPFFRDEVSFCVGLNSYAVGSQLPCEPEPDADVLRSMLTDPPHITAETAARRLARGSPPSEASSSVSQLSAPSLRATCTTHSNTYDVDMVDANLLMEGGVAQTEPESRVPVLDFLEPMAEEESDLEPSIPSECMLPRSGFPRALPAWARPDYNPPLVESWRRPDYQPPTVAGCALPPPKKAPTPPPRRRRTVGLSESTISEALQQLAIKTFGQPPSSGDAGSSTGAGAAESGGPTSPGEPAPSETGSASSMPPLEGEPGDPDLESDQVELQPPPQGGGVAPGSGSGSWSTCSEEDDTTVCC

Tests used:
[1] = biological target: T1, Halo-tagged ASPP1 CTD (887-1090) (UniProt Q96KQ4); experiment: pull-down; only the target purified
T1 sequence: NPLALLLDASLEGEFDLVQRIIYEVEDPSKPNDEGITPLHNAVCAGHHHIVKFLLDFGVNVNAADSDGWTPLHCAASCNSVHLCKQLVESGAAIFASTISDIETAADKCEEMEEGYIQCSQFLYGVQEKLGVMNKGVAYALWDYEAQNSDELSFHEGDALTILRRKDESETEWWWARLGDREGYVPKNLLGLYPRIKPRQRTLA

[2] = biological target: T2, ASPP2 (apoptosis-stimulating protein of p53 2), endogenous (human (endogenous in Huh7.5 and Huh7)) (UniProt Q13625); experiment: co-IP
T2 sequence: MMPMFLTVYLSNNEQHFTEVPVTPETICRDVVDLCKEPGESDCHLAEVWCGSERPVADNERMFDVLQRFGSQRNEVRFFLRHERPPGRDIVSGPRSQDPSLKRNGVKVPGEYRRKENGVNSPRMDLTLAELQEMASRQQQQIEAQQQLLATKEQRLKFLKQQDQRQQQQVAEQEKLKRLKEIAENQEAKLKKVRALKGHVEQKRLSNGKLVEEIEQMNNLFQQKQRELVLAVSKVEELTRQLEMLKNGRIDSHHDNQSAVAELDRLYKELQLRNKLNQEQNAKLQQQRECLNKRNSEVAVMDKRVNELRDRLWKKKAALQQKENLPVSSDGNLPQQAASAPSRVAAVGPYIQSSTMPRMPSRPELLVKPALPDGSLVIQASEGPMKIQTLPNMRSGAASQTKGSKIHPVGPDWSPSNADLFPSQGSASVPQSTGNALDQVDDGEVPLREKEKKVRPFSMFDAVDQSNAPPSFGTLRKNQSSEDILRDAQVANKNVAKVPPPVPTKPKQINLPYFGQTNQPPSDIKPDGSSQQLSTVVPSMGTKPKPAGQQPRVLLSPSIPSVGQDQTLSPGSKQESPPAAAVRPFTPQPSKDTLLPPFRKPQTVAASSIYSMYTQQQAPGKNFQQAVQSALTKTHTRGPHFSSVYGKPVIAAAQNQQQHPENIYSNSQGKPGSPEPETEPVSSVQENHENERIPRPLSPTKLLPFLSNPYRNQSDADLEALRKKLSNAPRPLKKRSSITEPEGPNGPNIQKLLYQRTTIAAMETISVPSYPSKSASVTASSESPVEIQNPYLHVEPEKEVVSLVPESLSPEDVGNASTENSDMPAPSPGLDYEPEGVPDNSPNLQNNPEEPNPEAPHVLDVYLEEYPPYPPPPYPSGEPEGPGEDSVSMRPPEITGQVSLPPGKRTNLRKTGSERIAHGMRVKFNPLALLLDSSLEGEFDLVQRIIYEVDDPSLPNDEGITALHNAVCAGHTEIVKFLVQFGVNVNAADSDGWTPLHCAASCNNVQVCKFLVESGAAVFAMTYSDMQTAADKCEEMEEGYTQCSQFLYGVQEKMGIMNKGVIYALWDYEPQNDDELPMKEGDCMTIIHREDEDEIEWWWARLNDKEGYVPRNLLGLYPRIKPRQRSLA

| Substance | binding [1] | binding [2] |
| --- | --- | --- |
| Myc-tagged HCV [1b.Con1] NS5A (from UniProt Q9WMX2 1973-2419) | no binding | – |
| HCV NS5A expressed from the subgenomic replicon N17/JFH (from UniProt Q99IB8 1977-2442) | – | binds |
| Myc-tagged HCV [1a.1] NS5A (from UniProt P26664 1973-2420) | no binding | – |
